# PMC10626543
# By UniProt entry, the sequences of proteins in these tests, tags left out. Residues count along the entry.
# UniProt P48678, residues 1-647: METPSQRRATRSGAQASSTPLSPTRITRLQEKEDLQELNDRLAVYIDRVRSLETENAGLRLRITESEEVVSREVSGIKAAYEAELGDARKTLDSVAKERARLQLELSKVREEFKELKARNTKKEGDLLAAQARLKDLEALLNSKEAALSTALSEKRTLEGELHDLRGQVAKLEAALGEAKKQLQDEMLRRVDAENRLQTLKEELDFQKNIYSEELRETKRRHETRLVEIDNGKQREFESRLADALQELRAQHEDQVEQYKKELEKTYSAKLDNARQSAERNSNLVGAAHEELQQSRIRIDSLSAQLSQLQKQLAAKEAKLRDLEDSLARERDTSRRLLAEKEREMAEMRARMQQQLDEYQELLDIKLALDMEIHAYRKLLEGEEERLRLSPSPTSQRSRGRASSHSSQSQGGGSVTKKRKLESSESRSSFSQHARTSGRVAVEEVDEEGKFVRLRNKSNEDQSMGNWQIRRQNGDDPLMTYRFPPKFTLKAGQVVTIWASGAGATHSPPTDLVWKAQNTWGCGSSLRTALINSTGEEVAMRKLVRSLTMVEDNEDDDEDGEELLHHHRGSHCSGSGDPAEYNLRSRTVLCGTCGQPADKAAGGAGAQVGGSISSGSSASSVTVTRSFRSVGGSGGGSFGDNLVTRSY
# No constants are given. Whether binding was seen depends on the method and setting. In cells and extracts the contact can be indirect. Here binding means that the protein was enriched with, or labelled near, the bait; the list need not be complete.
# B1: Oxysterol-binding protein 1 (protein, UniProt Q3B7Z2 1-805)
# chain: MAATELRGVVGPGPAAIAAPGGGGAGPPAVGGGGGRGDAGPGPGVAAATAATAGGPGPGAGGVAAGGPGSAPPAAGSGGSGAGGSGSAREGWLFKWTNYIKGYQRRWFVLSNGLLSYYRSKAEMRHTCRGTINLATANITVEDSCNFIISNGGAQTYHLKASSEVERQRWVTALELAKAKAVKMLAESDDSGDEESVSQTDKTELQSTLRTLSSKVEDLSTCNDLIAKHGTALQRSLSELESLKLPAESNEKIKQVNERATLFRITSNAMINACRDFLMLAQTHSKKWQKSLQYERDQRIRLEETLEQLAKQHNHLERAFRGATVLPANPPGSAGSGKDQCCSGKGDMSDEDDENEFFDAPEIITMPENLGHKRTGSNISGASSDVSLDEQYKHQLEETKKEKRTRIPYKPNYSLNLWSIMKNCIGKELSKIPMPVNFNEPLSMLQRLTEDLEYHELLDRAAKCENSLEQLCYVAAFTVSSYSTTVFRTSKPFNPLLGETFELDRLEENGYRSICEQVSHHPPAAAHHAESKNGWTLRQEIKITSKFRGKYLSIMPLGTIHCIFHSTGHHYTWKKVTTTVHNIIVGKLWIDQSGEIDIVNHKTGDKCNLKFVPYSYFSRDVARKVTGEVTDPSGKVHFALLGTWDEKMDCFKVQAASGENGGDARQRGHEAEDSRVMLWKRNPLPKNAENMYYFSELALTLNAWEGGTAPTDSRLRPDQRLMENGRWDEANAEKQRLEEKQRLSRKKREAEAAKATEDGTPHDPYKALWFERKKDPVTRELTHIYSGEYWECKEKQDWGSCPDIF
# B2: Kelch-like protein 41 (protein, UniProt A2AUC9 1-606)
# chain: MDSQRELAEELRLYQSTLLQDGLKDLLEEKKFIDCTLKAGDKSFPCHRLILSACSPYFREYFLSEIEEEKKKEVALDNVDPAILDLIIKYLYSASIDLNDGNVQDIFALSSRFQIPSVFTVCVSYLQKRLAPGNCLAILRLGLLLDCPRLAISAREFVSDRFVQICKEEDFMQLSPQELISVISNDSLNVEKEEVVFEAVMKWVRTDKENRAKNLSEVFDCIRFRLMAEKYFKDHVEKDDIIKSNPEVQKKIKVLKDAFAGKLPEPSKNAEKAGAGEVNGDVGDEDLLPGYLNDIPRHGMFVKDLILLVNDTAAVAYDPMENECYLTALAEQIPRNHSSLVTQQNQVYVVGGLYVDEENKDQPLQSYFFQLDNVTSEWVGLPPLPSARCLFGLGEVDDKIYVVAGKDLQTEASLDSVLCYDPVAAKWSEVKNLPIKVYGHNVISHNGMIYCLGGKTDDKKCTNRVFIYNPKKGDWKDLAPMKTPRSMFGVAIHKGKIVIAGGVTEDGLSASVEAFDLKTNKWEVMTEFPQERSSISLVSLAGALYAIGGFAMIQLESKEFAPTEVNDIWKYEDDKKEWAGMLKEIRYASGASCLATRLNLFKLSKL
# B3: Myristoylated alanine-rich C-kinase substrate (protein, UniProt P26645 1-309)
# chain: MGAQFSKTAAKGEATAERPGEAAVASSPSKANGQENGHVKVNGDASPAAAEPGAKEELQANGSAPAADKEEPASGSAATPAAAEKDEAAAATEPGAGAADKEAAEAEPAEPSSPAAEAEGASASSTSSPKAEDGAAPSPSSETPKKKKKRFSFKKSFKLSGFSFKKSKKESGEGAEAEGATAEGAKDEAAAAAGGEGAAAPGEQAGGAGAEGAAGGEPREAEAAEPEQPEQPEQPAAEEPQAEEQSEAAGEKAEEPAPGATAGDASSAAGPEQEAPAATDEAAASAAPAASPEPQPECSPEAPPAPTAE
# B4: Interferon gamma induced GTPase (protein, UniProt Q9DCE9 1-423)
# chain: MDLVTKLPQNIWKTFTLFINMANYLKRLISPWSKSMTAGESLYSSQNSSSPEVIEDIGKAVTEGNLQKVIGIVKDEIQSKSRYRVKIAVTGDSGNGMSSFINALRFIGHEEEDSAPTGVVRTTKKPACYSSDSHFPYVELWDLPGLGATAQSVESYLEEMQISTFDLIIIVASEQFSSNHVKLAITMQRMRKRFYVVWTKLDRDLSTSTFPEPQLLQSIQRNIRENLQQAQVRDPPLFLISCFSPSFHDFPELRNTLQKDIFSIRYRDPLEIISQVCDKCISNKAFSLKEDQMLMKDLEAAVSSEDDTANLERGLQTYQKLFGVDDGSLQQVARSTGRLEMGSRALQFQDLIKMDRRLELMMCFAVNKFLRLLESSWWYGLWNVVTRYFRHQRHKLVIEIVAENTKTSLRKALKDSVLPPEIH
# B5: B cell CLL/lymphoma 9 protein (protein, UniProt Q9D219 1-1425)
# chain: MHPSNPKVRSSPSGNTQSSPKSKQEVMVRPPTVMSPSGNPQLDSKFSNQGKPGGSASQSQPSPCDSKSGGHTPKALPGPGGSMGLKNGAGNGAKGKGKRERSISADSFDQRDPGTPNDDSDIKECNSADHIKSQESQHTPHSMTPSTATAPRSSTPSHGQTPAPEPISAQKTPAKVVYVFSTEMANKAAEAVLKGQVETIVSFHIQNISNSKSERSTAPLNTQIPTLRNDPKPLPQQPPAPANQDQNSSQNARLQPTPPIQAPAPKPTAAPRPLDRESPGVENKLIPPVGSPGSSTPLPPDGTGPNSTPNNRAVTPVSQGSNSSSADPKAPPPPPVSGGEPPTLGENPDGLSQEQLEHRERSLQTLRDIQRMLFPDEKEFTAGQTGGPQQNTGVLDGPQKKPDGPIQAMMSQSQSLGKGPGPRTDVGAPFGPQGHRDVPFSPDEMVPPNMSSQSGPIGPDHLDHMTPEQIAWLKLQQEFYEEKRRKQEQVVVQQCSLQDMMVHQHGPRGVVRGPPPPYQMAPGEGWAPGAEPFPDGINISHSLPPRGMAPHPNMPGSQMRLPGFAGMINSEMEGPNVPNPASRPGLSGVSWPDDVPKIPDGRNFPPGQGVFSGPGRGERFPNPQGLSEEMFQQQLAEKQLALPPGMSMEGIRPGMEMNRMIPGSQRHMEPGSNPIFPRIPVEGPLSPSRGDFPKGMPPQIGPGRELEFGMVPGGMKGEVNLNVNMGSSSQMIPQKMREAGAGPEEMMKLRPGSSEMLPAQQKMVPLPFGEHPQQEYGVGPRPFLPMSQGPGSNSGLRNLREPIGPDQRTNSRLSHMPPLPLNPSSNPTSLSTAPPVQRGLGRKPLDISVAGSQVHSPGINPLKSPTMHQVQSPMLGSPSGNLKSPQTPSQLAGMLAGPAAAASIKSPPVLGSAAASPVHLKSPSLPAPSPGWTSSPKPPLQSPGIPPNHKAPLTMASPAMLGSVESGGPPPPTASQPASVNIPGSLPSSTPYPMPPEPTLSQNPLSIMMSRMSKFAMPSSTPLYHDAIKTVASSDDDSPPARSPNLPSMNSMPGMGINTQNPRISGPNPVVPMPTLSPMGMTQPLSHSNQMPSPNAMGPSIPPHGVPMGPGLMSHNPIMGHGSQEPPMVPQGRMGFPQGFPPVQSPPQQVPFPHNGPTGGQGNFPGGIGFPGEGPLGRPSNLPQSSADPALCKPGGPGAPDSFTVLGNSMPSVFTDPDLQEVIRPGATGIPEFDLSRIIPSEKPSQTLQYFPRGEVPGRKQPQGPGPGFSHMQGMMSDQAPRMGLALPGMGGPGPVGTPDIPLGTSPSMPGHNPMRPPAFLQQGMMGPHHRMMSPAQSTVPGPATLMTNPAAAVGMIPGKDRGPAGLYTHPGPVGSPGMMMSMQGMMGPQQNIMIPPQMRPRGMAADVGMGGFSQGPGNPGNMMF
# B6: MICOS complex subunit Mic19 (protein, UniProt Q9CRB9 1-227)
# chain: MGGTASTRRVTFEADENENITVVKGIRLSENVIDRMKESSPSGSKSQRYSSVYGASVSDEDLKRRVAEELALEQAKKESEHQRRLKQARDLERERAAANEQLTRAVLRERISSEEERMKAKHLARQLEEKDRVMRKQDAFYKEQLARLEERSSEFYKVTTEEYQKAAEEVEAKFKRYEYHPVCADLQTKILQCYRQNTQQTLSCSALASQYMHCVNHAKQSMLEKGG
# B7: Protein FAM210A (protein, UniProt Q8BGY7 1-273)
# chain: MQWNVPRTMSRLALRTFVEAQKARLFDHHWRIKGPLLVHRGEYRVAWTPHLRKQWLHLSAVQCLAKQRNLLDAQPPQLGTLRQERWEQDILSKRVLSSSSTSQETPSEKKEETDPLQDKSISLYQRFKKTFRQYGKVLIPVHLITSGIWFGTFYYATIKGVNVIPFLEVIGLPDSIVDILKNSQSGNALTAYAMFKIATPARYTVTLGGTSFTVKYLRSHGYMSTPPPVKEYLQGRMEETKELITEKMEETKDRLTEKLQETKGKVSFKKKVE
# B8: Four and a half LIM domains protein 2 (protein, UniProt O70433 1-279)
# chain: MTERFDCHHCNESLYGKKYILKEENPHCVACFEELYANTCEECGTPIGCDCKDLSYKDRHWHEGCFHCSRCGSSLVDKPFAAKEEQLLCTDCYSNEYSSKCQECKKTIMPGTRKMEYKGSSWHETCFTCQRCQQPIGTKSFIPKENQNFCVPCYEKQYALQCVQCKKPITTGGVTYREQPWHKECFVCTACKKQLSGQRFTARDEFPYCLTCFCDLYAKKCAGCTNPISGLGGTKYISFEERQWHNDCFNCKKCSLSLVGRGFLTERDDILCPDCGKDI
# B9: Sorbin and SH3 domain-containing protein 2 (protein, UniProt Q3UTJ2 1-1180)
# chain: MNTDSGGCARKRAAMSVTLTSVKRVQSSPNLLAAGRESQSPDSAWRSYNDRNPETLNGDATYSSLAAKGFRSVRPNLQDKRSPTQSQITINGNSGGAVSPVSYYQRPFSPSAYSLPASLNSSIIMQHGRSLDSAETYSQHAQSLDGTMGSSIPLYRSSEEEKRVTVIKAPHYPGIGPVDESGIPTAIRTTVDRPKDWYKTMFKQIHMVHKPGLYNSPYSAQSHPAAKTQTYRPLSKSHSDNGTDAFKEVPSPVPPPHVPPRPRDQSSTLKHDWDPPDRKVDTRKFRSEPRSIFEYEPGKSSILQHERPVSIYQSSIDRSLERPSSSASMAGDFRKRRKSEPAVGPLRGLGDQSSSRTSPGRADLPGSSSTFTKSFISSSPSSPSRAQGGDDSKMCPPLCSYSGLNGTPSGELECCNAYRQHLDVPGDSQRAITFKNGWQMARQNAEIWSSTEETVSPKIKSRSCDDLLNDDCDSFPDPKTKSESMGSLLCEEDSKESCPMTWASPYIQEVCGNSRSRLKHRSAHNAPGFLKMYKKMHRINRKDLMNSEVICSVKSRILQYEKEQQHRGLLHGWSQSSTEEVPRDVVPTRISEFEKLIQKSKSMPNLGDEMLSPITLEPPQNGLCPKRRFSIESLLEEETQVRHPSQGQRSCKSNTLVPIHIEVTSDEQPRTHMEFSDSDQDGVVSDHSDYVHVEGSSFCSESDFDHFSFTSSESFYGSSHHHHHHHHHHRHLISSCKGRCPASYTRFTTMLKHERAKHENMDRPRRQEMDPGLSKLAFLVSPVPFRRKKILTPQKQTEKAKCKASVVEALDSALKDICDQIKAEKRRGSLPDNSILHRLISELLPQIPERNSSLHALKRSPMHQPFHPLPPDGASHCPLYQNDCGRMPHSASFPDVDTTSNYHAQDYGSALSLQDHESPRSYSSTLTDLGRSASRERRGTPEKEKLPAKAVYDFKAQTSKELSFKKGDTVYILRKIDQNWYEGEHHGRVGIFPISYVEKLTPPEKAQPARPPPPVQPGEIGEAIAKYNFNADTNVELSLRKGDRIILLKRVDQNWYEGKIPGTNRQGIFPVSYVEVVKRNAKGAEDYPDPPLPHSYSSDRIYTLSSNKPQRPGFSHENIQGGGEPFQALYNYTPRNEDELELRESDVVDVMEKCDDGWFVGTSRRTKFFGTFPGNYVKRL
# Molecular target: native lamin A/C (mouse (endogenous in heart, skeletal muscle and brain)) (UniProt P48678)
# Experiment: affinity purification with mass spectrometry; native lamin A/C immunoprecipitated with mAb 4C11 and Protein G Sepharose from sonicated skeletal muscle lysates of old IL10-KO and control C57Bl/6 female mice (five each); 50 mM Tris pH 7.4, 300 mM NaCl, 0.3% Triton X-100, 4°C; TMT 10-plex
row,binding,Binder
1,binds,B1
2,binds,B2
3,binds,B3

# Molecular target: native lamin A/C (mouse (endogenous in heart, skeletal muscle and brain)) (UniProt P48678)
# Experiment: affinity purification with mass spectrometry; native lamin A/C immunoprecipitated with mAb 4C11 and Protein G Sepharose from sonicated heart lysates of old IL10-KO and control C57Bl/6 female mice (five each); 50 mM Tris pH 7.4, 300 mM NaCl, 0.3% Triton X-100, 4°C; TMT 10-plex
row,binding,Binder
1,binds,B4
2,binds,B5
3,binds,B6
4,binds,B7
5,binds,B8
6,binds,B9
